Measurements taken from paper PMC6212497.
Results are given in words; binding and its absence hold for the method and conditions named. Binding seen in cells or lysates may run through a third protein. Some entries that bind do so weakly or less than the wild type. For some assays here: Sequences can lack the tags named with a protein.

By UniProt entry, the sequences of proteins in these tests, tags left out.
UniProt P15311: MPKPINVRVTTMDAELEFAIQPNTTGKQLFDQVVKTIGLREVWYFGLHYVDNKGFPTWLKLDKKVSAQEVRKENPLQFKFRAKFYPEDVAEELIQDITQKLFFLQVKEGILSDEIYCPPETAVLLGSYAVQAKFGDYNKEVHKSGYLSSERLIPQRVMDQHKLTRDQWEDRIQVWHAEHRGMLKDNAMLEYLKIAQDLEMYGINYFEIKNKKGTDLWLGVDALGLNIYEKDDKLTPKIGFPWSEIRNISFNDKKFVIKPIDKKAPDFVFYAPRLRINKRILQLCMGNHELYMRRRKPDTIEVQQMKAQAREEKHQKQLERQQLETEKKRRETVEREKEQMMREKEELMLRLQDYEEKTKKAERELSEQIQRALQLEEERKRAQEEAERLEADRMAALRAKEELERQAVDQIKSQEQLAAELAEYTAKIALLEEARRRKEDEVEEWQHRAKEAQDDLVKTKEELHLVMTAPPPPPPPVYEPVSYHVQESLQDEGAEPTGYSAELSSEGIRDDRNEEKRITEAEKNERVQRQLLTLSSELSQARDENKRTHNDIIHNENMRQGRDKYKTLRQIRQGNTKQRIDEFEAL
UniProt Q8CFI0: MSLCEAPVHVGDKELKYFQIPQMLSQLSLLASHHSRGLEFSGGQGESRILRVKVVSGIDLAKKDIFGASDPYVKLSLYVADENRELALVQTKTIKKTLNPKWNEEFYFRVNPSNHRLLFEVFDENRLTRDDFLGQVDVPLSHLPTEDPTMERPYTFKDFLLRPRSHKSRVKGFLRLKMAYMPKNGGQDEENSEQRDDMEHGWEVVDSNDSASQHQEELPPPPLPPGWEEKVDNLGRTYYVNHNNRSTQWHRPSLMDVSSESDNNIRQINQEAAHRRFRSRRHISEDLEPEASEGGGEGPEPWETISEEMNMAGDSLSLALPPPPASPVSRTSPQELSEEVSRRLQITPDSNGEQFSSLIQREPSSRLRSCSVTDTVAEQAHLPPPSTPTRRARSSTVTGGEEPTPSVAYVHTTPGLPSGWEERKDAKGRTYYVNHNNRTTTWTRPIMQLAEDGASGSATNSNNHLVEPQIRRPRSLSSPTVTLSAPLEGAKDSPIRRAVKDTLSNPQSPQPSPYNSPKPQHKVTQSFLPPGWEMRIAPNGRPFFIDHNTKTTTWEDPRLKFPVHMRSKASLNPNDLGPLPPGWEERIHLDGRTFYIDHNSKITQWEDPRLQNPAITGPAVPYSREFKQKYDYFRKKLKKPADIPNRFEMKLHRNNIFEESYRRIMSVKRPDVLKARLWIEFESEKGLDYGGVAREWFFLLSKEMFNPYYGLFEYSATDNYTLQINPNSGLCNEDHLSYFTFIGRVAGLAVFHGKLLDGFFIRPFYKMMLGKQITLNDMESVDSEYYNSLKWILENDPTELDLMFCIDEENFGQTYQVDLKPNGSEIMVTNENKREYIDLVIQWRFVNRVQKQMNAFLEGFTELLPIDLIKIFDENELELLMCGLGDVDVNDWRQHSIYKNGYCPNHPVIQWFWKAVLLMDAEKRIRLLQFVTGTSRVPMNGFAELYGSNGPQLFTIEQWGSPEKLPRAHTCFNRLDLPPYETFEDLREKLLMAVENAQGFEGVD

Key:
[1] = target: T1, PC-FLAG (mouse podocalyxin from the PC-Myc-DDK plasmid) (mouse) (UniProt Q9R0M4); assay: co-IP; whole-cell lysates of PC-FLAG-transfected HEK293T cells (with or without SGK3-K191M, SGK3-S486D, WT Nedd4-2; 24 h) precipitated with anti-FLAG antibody, blotted with anti-FLAG and anti-ezrin
T1 sequence: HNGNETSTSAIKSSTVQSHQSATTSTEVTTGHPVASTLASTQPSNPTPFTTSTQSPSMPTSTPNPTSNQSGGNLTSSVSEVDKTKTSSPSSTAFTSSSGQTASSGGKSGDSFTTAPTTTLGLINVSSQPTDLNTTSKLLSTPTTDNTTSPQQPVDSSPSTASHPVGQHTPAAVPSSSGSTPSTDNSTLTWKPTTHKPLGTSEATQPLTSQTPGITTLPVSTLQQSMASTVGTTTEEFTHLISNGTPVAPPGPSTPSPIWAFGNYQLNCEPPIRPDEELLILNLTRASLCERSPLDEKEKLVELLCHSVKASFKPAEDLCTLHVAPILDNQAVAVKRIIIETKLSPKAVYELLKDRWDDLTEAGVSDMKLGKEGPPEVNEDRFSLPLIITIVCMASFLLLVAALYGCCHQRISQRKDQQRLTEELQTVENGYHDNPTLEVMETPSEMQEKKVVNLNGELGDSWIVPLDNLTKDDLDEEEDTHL

[2] = target: ezrin (endogenous in HEK293T cells) (human (endogenous in HEK293T)) (UniProt P15311); assay: co-IP; whole-cell lysates of HEK293T cells transfected with WT Nedd4-2, with or without SGK3-K191M or SGK3-S486D, precipitated with anti-ezrin antibody, blotted with anti-ezrin and anti-Nedd4-2

binding [1] | binding [2] | Substance
binds |  | ezrin (endogenous in HEK293T cells) (from UniProt P15311 1-586)
 | binds | neural precursor cell expressed developmentally downregulated protein 4 subtype 2 (Nedd4-2), wild type (from UniProt Q8CFI0 1-1004) (enzyme)
